Taken from: PubChem BioAssay AID504786 (Drosophila RNAi Screening Center, 2011)

Screen: 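Fly genes required for HIF-dependent transcription when hypoxia is mimicked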 (primary screen)
Cell system: Drosophila S2 cells with a stable HIF luciferase reporter
Reagent: long dsRNA against Drosophila genes, about 0.2 µg dsRNA per well of a 384-well plate
Timing: three days of knock-down, then 20 h of DFO before reading
Conditions: desferrioxamine (DFO) at 100 µM, an iron chelator that mimics hypoxia, for 20 h
Read-out: 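HIF reporter luminescence in cells given 100 µM DFO for 20 h, using the mouse ldh-a hypoxia-response element, scored as per-plate z-scores; higher means greater loss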
Scale: z-score: higher = stronger loss of HIF reporter signal
The deposit covers about 21,000 reagents; this is an unselected part of those that have a named target and a result. 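Primary screen; positive scores mean lost reporter signal, so the sign may be inverted from the usual convention.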 A plus sign joins genes that one reagent is predicted to hit. Reagent sequences are not shown.

predicted target	dsRNA	z-score, replicate 1	z-score, replicate 2	z-score, replicate 3	z-score, replicate 4
CG14107	DRSC10110	-0.1	3.2		
zf30C (zinc finger protein 30C)	DRSC03641	-0.1	-0.4		
osy (oskyddad)	DRSC14903	-0.1	0.2		
osy (oskyddad)	DRSC15979	-0.4	-0.5		
osy (oskyddad)	DRSC15981	-0.3	0.4		
bor (belphegor)	DRSC16915	-0.1	-0.1		
CG5199	DRSC11770	0.2	0		
CG14767	DRSC06500	-0.2	-0.6		
CG18622	DRSC15360	-0.5	-0.7		
Dic1	DRSC14125	-0.1	0		
CG34024 (retired record)	DRSC13734	-0.3	0		
CG18233	DRSC10308	-0.3	-0.7		
Phf7 (PHD finger protein 7)	DRSC20692	-0.3	-0.4		
CG4293	DRSC18557	-0.3	-0.1		
ATP7	DRSC19819	-0.4	-0.7		
RNaseZ (Ribonuclease Z)	DRSC06845	-0.2	0.1		
CG12948	DRSC14576	-0.3	-0.5		
CG14696	DRSC14919	0.1	-0.1		
Sumo (Small ubiquitin like modifier)	DRSC03611	3.1	4.5		
Ugt35A1 (UDP-glycosyltransferase family 35 member A1)	DRSC16892	-0.3	-0.3		
CG14397	DRSC02381	-0.3	-0.7		
GstE5 (Glutathione S transferase E5)	DRSC06675	-0.3	-0.5		
Pld3 (Phospholipase D family member 3)	DRSC03167	-0.2	-0.7		
Ir7e (Ionotropic receptor 7e)	DRSC18011	0	-0.1		
Nup358 (Nucleoporin 358kD)	DRSC14410	-0.1	-0.1		
snk (snake)	DRSC17060	-0.2	-0.2		
sas (stranded at second)	DRSC12631	0.2	0.5		
Ir93a (Ionotropic receptor 93a)	DRSC15212	-0.3	-0.6		
Ir93a (Ionotropic receptor 93a)	DRSC15213	0.9	-0.3		
Nt5a (5' nucleotidase A)	DRSC08561	-0.2	-0.3		
CG4709	DRSC02772	-0.4	-1.1		
CG12546 + CG14452	DRSC11709	1.1	0.5		
Chs2 (Chitin synthase 2)	DRSC11830	-0.3	-0.1		
CG10435	DRSC14246	-0.4	-0.6		
Polr3A (RNA polymerase III subunit A)	DRSC19766	0.6	1.7		
CG12782	DRSC04127	-0.3	0		
CG16986	DRSC08502	-0.3	-0.3		
CG33769	DRSC11716	-0.3	0.2		
CG32812	DRSC18478	-0.3	-0.4		
CG1416	DRSC03706	0.3	1.8		
CG14507	DRSC14859	-0.3	0.3		
par-1	DRSC05792	1.3	2.7		
par-1	DRSC06098	-0.1	-0.2		
par-1	DRSC06616	0	-0.3		
par-1	DRSC07660	1.5	1.6		
par-1	DRSC07661	-0.1	-0.3		
CG9175	DRSC03153	-0.4	-0.2		
CG14187	DRSC10186	-0.4	-0.4		
CG15605	DRSC06558	-0.2	-0.6		
idc (identity crisis)	DRSC15680	-0.3	-0.7		
Ctr1C (Copper transporter 1C)	DRSC15089	0	-0.4		
X11L	DRSC19958	-0.4	-0.8	0.4	-0.3
X11L	DRSC19959	-0.3	-0.2		
CG5377	DRSC15783	0.1	-0.2		
sov (small ovary)	DRSC17930	-0.4	-0.7		
mRpL23 (mitochondrial ribosomal protein L23)	DRSC08307	1	0.9		

5 entries from above in another layout.
| predicted target | dsRNA | z-score, replicate 1 | z-score, replicate 2 | z-score, replicate 3 | z-score, replicate 4 |
| --- | --- | --- | --- | --- | --- |
| CG18233 | DRSC10308 | -0.3 | -0.7 | – | – |
| Phf7 (PHD finger protein 7) | DRSC20692 | -0.3 | -0.4 | – | – |
| CG4293 | DRSC18557 | -0.3 | -0.1 | – | – |
| ATP7 | DRSC19819 | -0.4 | -0.7 | – | – |
| RNaseZ (Ribonuclease Z) | DRSC06845 | -0.2 | 0.1 | – | – |
